Source: publication PMC5342411
These are yes or no findings as the source states them, for the method shown. Binding seen in cells or lysates may run through a third protein. Some binding calls cover weakened binding; strength is not graded here.

Biological target: T1, atypical protein kinase C-ι (human (endogenous in CCA tissues, TFK-1 and HuCCT1)) (UniProt P41743)
T1 sequence: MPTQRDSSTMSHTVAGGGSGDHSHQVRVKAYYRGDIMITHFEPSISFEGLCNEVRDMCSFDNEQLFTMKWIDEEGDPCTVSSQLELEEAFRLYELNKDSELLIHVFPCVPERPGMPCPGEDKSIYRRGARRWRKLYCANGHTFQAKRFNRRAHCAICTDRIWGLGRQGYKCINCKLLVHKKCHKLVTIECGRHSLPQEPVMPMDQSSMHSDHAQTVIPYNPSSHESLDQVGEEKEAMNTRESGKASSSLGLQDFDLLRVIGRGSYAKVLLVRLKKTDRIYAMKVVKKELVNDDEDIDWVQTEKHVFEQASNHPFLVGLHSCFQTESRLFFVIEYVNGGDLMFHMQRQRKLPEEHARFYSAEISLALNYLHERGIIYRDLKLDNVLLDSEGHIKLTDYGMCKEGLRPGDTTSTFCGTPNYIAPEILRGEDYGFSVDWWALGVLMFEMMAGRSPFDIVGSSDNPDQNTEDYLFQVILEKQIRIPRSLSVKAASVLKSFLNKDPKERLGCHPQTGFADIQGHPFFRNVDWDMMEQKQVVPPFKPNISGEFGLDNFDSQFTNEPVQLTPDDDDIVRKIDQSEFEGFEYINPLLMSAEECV
Experiment: co-IP; endogenous proteins in RIPA lysates of CCA tissues and TFK-1 and HuCCT1 cells; 1 mg total protein pre-cleared with rabbit IgG and protein A+G agarose; precipitated with anti-aPKC-ι or anti-14-3-3ζ antibody overnight at 4°C; washed 5 times with RIPA lysis buffer; Western blot with the other antibody; rabbit IgG as negative control

binding: binds
Substance: 14-3-3ζ (from UniProt P63104-1 1-245)
